Measurements published in PMC4015309, “Interaction of translationally controlled tumor protein with Apaf-1 is involved in the development of chemoresistance in HeLa cells” (BMC Cancer, 2014).
These are yes or no findings as the source states them, for the method shown. In cells and extracts the contact can be indirect. Some binding calls cover weakened binding; strength is not graded here. For part of these data: Tags and fused reporters may be left off the sequences shown. Each block holds one molecule with its values, some of them ahead of it.

Sequences of proteins named here, by UniProt entry; tags and fusion partners are left off.
UniProt O14727: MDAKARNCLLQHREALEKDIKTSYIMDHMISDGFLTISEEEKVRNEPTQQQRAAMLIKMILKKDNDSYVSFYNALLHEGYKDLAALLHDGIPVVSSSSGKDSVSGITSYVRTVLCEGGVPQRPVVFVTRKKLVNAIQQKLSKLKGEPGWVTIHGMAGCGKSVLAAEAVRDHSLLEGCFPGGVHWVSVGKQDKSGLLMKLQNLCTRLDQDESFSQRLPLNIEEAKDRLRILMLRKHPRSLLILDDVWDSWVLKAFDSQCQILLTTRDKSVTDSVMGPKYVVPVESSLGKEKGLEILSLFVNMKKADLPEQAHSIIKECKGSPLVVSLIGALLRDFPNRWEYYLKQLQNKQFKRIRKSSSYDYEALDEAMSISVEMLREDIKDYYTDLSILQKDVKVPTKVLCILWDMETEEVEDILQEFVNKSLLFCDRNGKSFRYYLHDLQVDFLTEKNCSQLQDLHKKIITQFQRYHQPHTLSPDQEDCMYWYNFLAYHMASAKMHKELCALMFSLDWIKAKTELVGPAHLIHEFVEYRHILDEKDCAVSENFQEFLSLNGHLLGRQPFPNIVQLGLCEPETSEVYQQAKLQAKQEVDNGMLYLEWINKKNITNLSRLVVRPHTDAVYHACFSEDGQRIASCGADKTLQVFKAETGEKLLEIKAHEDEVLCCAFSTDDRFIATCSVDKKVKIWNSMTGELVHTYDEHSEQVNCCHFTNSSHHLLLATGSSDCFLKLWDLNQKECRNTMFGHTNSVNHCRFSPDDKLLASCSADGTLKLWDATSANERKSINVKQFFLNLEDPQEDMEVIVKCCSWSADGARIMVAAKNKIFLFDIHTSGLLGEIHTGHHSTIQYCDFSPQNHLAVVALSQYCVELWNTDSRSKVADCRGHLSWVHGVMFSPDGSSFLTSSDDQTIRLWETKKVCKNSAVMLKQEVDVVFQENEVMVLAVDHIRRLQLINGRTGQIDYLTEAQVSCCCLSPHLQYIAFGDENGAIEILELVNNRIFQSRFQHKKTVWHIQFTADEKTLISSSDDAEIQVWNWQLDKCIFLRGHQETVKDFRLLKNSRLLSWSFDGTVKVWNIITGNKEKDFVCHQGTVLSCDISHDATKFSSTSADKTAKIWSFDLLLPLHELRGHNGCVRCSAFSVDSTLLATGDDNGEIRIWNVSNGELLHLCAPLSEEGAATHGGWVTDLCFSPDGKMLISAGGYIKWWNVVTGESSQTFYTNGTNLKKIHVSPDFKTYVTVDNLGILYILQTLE
UniProt P00004: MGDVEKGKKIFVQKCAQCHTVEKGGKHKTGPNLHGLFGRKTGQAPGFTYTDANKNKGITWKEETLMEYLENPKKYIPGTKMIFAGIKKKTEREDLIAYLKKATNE

How the values were obtained:
[1] = target: Apaf-1 (apoptotic protease activating factor-1), endogenous in HeLa (human (endogenous in HeLa)) (UniProt O14727); assay: co-IP; HeLa S-100 extract incubated with recombinant human TCTP, dATP and cytochrome c (1 h, 4°C, PBS); immunoprecipitated with anti-Apaf-1 antibody on Protein G-agarose; western blot; only the binder purified
[2] = target: Apaf-1 (apoptotic protease activating factor-1), endogenous in HeLa (human (endogenous in HeLa)) (UniProt O14727); assay: as above; remark: listed apart in the source
[3] = target: Apaf-1 (apoptotic protease activating factor-1), endogenous in HeLa (human (endogenous in HeLa)) (UniProt O14727); assay: co-IP; extracts of HeLa cells infected with Flag-tagged adTCTP or adNull (MOI 10), untreated or treated with 20 μM etoposide; immunoprecipitated with anti-Na,K-ATPase α1 or anti-Apaf-1 antibody; blotted with anti-Flag

binding [1]: binds
Molecule: cytochrome c (from UniProt P00004 1-105)

binding [2]: binds
B1: recombinant human TCTP (translationally controlled tumor protein) (protein, UniProt P13693 1-172)
chain: MIIYRDLISHDEMFSDIYKIREIADGLCLEVEGKMVSRTEGNIDDSLIGGNASAEGPEGEGTESTVITGVDIVMNHHLQETSFTKEAYKKYIKDYMKSIKGKLEEQRPERVKPFMTGAAEQIKHILANFKNYQFFIGENMNPDGMVALLDYREDGVTPYMIFFKDGLEMEKC

binding [3]: binds
B2: N-terminal Flag-tagged TCTP, full length (protein, UniProt P13693 1-172)
chain: MIIYRDLISHDEMFSDIYKIREIADGLCLEVEGKMVSRTEGNIDDSLIGGNASAEGPEGEGTESTVITGVDIVMNHHLQETSFTKEAYKKYIKDYMKSIKGKLEEQRPERVKPFMTGAAEQIKHILANFKNYQFFIGENMNPDGMVALLDYREDGVTPYMIFFKDGLEMEKC
